Consider 108 sequences from PubChem BioAssay AID1347426 (Functional Genomics Laboratory (NCATS/FGL), 2020).

Hit rate of the full screen: of about 31,000 sequences, about 1,400 (4.5%) were called active.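 The calls were made as follows: active = median seed-adjusted z-score above 1 or below -1; inactive = the rest.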 This is one part of the list.

This test is described as follows: Novel Modifiers of Survival Motor Neuron (SMN) Protein: Gene Identification via Genome-wide siRNA Screen.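 Also: luminescence tracks full-length SMN protein made from the SMN2 reporter.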 As to conditions: HEK293T SMN2-luciferase reporter, siRNA knockdown, 72 h; actives lie on both sides. The procedure, abridged: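 siRNA screen, 10418 genes ×3 siRNAs; 1 pmol/well, lipid reverse transfection into HEK293T SMN2-luc reporter line. 72 h, 37 °C, 5% CO2; ONE-Glo readout. Data: neg-ctrl normalized, log10, MAD; hit = MAD >1.0 or < -1.0.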
In general terms: A reporter such as luciferase makes a cellular process visible.
As for GCAGUUCGAGAAGAACUUUTT against LMBR1, the median seed-adjusted z-score is inactive: 0.236.
GCUUGAGUAUAGAUAAAGATT against PAM: the median seed-adjusted z-score was inactive: 0.
Take GCCUGUUAUCGACUACAUUTT against 7-Sep: the median seed-adjusted z-score was inactive: -0.00715.
The same measure for GCCUGAAAACAAACCAGAATT against BAG3: inactive: -0.443; for GCAAGAAAAGCGCAGAGAATT against MSX1: inactive: 0.757.
Consider GGAAAACUACUGUCGAAAUTT against HGF, for which the median seed-adjusted z-score was inactive: -0.569.
With CCAGUAAUCUGAUAAAUAATT against COX7A2 the figure was inactive: -0.0808.
As to GAACUUUCCUAAUGGUGUUTT against CPM, the median seed-adjusted z-score was inactive: 0.549.
With UCAUCUCUAUUGUUGCUGUTT against PSEN1 the figure was inactive: -0.679; with CGACCAGGAUGGAUACAUUTT against RASGRP1, inactive: -0.392; with AGCUGAUGUUCGAGCAGUATT against ACTL6B, inactive: 0.0703.
In the case of GGAGGAUGACUUGAACGCATT against CFD, the median seed-adjusted z-score is inactive: -0.0604.
The same measure for GGAGCAUAUGAUCAACAAATT against PHTF2: inactive: 0.389.
Consider CCACGAGAUUUUAAGCGCATT against HEPHL1, for which the median seed-adjusted z-score was inactive: 0.0681.
As for UCACGAAGCUCAGAGAUUATT against SLC25A29, the median seed-adjusted z-score is inactive: 0.642.
With GCGUGACAAUGGUUGGAGATT against OSBPL11 the figure was inactive: 0.535; with GCCUUAAGGUCAAGGUCUATT against UNC5B, inactive: -0.0207; with CAGUGGAAUUUAUGUGCAATT against HTRA3, inactive: 0.291.
Consider CGGCAACAUCGGAAUCUGUTT against KRT37, for which the median seed-adjusted z-score is inactive: 0.0484.
The same measure for GCAUAGGUGUCAUCGGCAATT against ATP11A: inactive: 0.158; for GCAGAAAUGUUUCGUAGAATT against CDK6: inactive: 0.
For CCACAUUGUCAGUGAAUUATT against SULT6B1, the median seed-adjusted z-score is inactive: 0.
The same measure for GCUUUAUAAGUGUAGCGAATT against ZNF749: inactive: 0.911.
With CAGUCGAGAUUAUCGUAGATT against SFRS10, the median seed-adjusted z-score is inactive: -0.071.
In the case of ACAGAAUACAGGCUGGUGATT against CSDA, the median seed-adjusted z-score was inactive: 0.
As to GUCAAGAUAUCAUAGCUAUTT against NDST4, the median seed-adjusted z-score is inactive: 0.426.
With CCAUUGUCCCAGACUCGAATT against MARK3 the figure was inactive: 0.271.
The same measure for CCUGGAAGGUUAUCGGAAATT against ATP10D: inactive: -0.35; for CGGGAGCAUUCGCUCAUUATT against LMAN2: inactive: -0.0921; for GCAGGACCGAUAUGCCUUATT against NAGA: inactive: -0.247.
Consider GGAUAGAUUUCUUCGAGAATT against LARP7, for which the median seed-adjusted z-score is inactive: -0.483.
For GAGUGUAACAUCGUAGUAATT against DHX9, the median seed-adjusted z-score was inactive: -0.687.
In the case of CAGUGUUAAUUGUGCAAGATT against USP9X, the median seed-adjusted z-score is inactive: -0.443.
Regarding GGAAGGUUCAUGCUAGAGATT against SLC8A1, the median seed-adjusted z-score was inactive: 0.221.
As to CCAUCUCCUACAUCGCCGATT against APBA2, the median seed-adjusted z-score was active: 1.66.
Take CACUGAUUGAUGUCAAUGATT against CDH3: the median seed-adjusted z-score is inactive: -0.138.
Turning to CCAACGAGCUGAGAAAUAATT against STX6, the median seed-adjusted z-score was inactive: 0.748.
In the case of CGACGAUUCGUGCUUAAUATT against MYO5C, the median seed-adjusted z-score was inactive: 0.
GAUAUGUUGCUGCUAUUAATT against DLD: the median seed-adjusted z-score was inactive: 0.377.
As for CGCAGACGAUAUUGACAAATT against APOL6, the median seed-adjusted z-score was inactive: -0.167.
The same measure for GGAUAUUUCGCAGAGGAAATT against ZNF763: inactive: 0.236; for GAGUCGGAGUACUCAGUAATT against BMP5: inactive: 0.0733.
On to GCAUCCCAGUGAACUGUGATT against PNMA1, for which the median seed-adjusted z-score was inactive: 0.2.
The same measure for GCCUUAAUCUGGAUCAUAATT against PLOD3: inactive: -0.258; for GACUGUUACAGAUCGGAAATT against NKIRAS1: inactive: 0.113.
Take CGUGAUAACGGCUAAGGAATT against MYF6: the median seed-adjusted z-score is inactive: -0.0315.
The same measure for GGAGCAACGAGAGAAACAATT against RNMTL1: inactive: 0.174.
As to AGAGCAUUGAGAUCGAGAATT against RAB11FIP3, the median seed-adjusted z-score is inactive: 0.0361.
For the sequence GGAAGACAGUAAAACUUUUTT against FHOD1, the median seed-adjusted z-score was inactive: -0.114.
Consider GGCGAGAAGAGCAACGUAATT against DDX46, for which the median seed-adjusted z-score was active: -1.24.
Turning to CGAGUUUGAUGAAAGAGGATT against NT5E, the median seed-adjusted z-score was inactive: 0.199.
Take CACUGCAGCUUGAAUGAGATT against EPO: the median seed-adjusted z-score is inactive: 0.148.
Regarding GCCCAUUCAGUGGAACGAATT against GLI3, the median seed-adjusted z-score was inactive: 0.143.
For the sequence GCAUCUCAUCGGAAGAGGATT against MAP3K12, the median seed-adjusted z-score is inactive: -0.6.
GUGAGAAGCAGCUACCGUATT against FADS6: the median seed-adjusted z-score was inactive: -0.637.
As for CUGUAAGAUUAAAUCCCAATT against TMTC4, the median seed-adjusted z-score is active: -1.16.
On to CCAUUGUCAAAAGAUUUCUTT against CDC14C, for which the median seed-adjusted z-score is inactive: 0.437.
As for GCCCUGCUCUUUGUACUCUTT against BCAT1, the median seed-adjusted z-score was inactive: -0.604.
The same measure for CCACCUAUGCUAUCAACGUTT against VKORC1: inactive: -0.754; for GUACCACCGGGAGCUCAAATT against LRTM2: inactive: 0.465; for UGCUAUUCAUCUUUCCCGATT against TRIM11: inactive: -0.251.
With GACAGGGAAUGAUCACAUUTT against PDE9A the figure was inactive: 0.708.
Turning to CAGCGCAUGUGGAACUACATT against GRIK5, the median seed-adjusted z-score was inactive: -0.242.
With AGAUUGUCAUCGUCCAGUUTT against ATP2B3, the median seed-adjusted z-score was inactive: 0.0848.
For GAAUCGAUAUAGAUGCAGATT against SLC5A4, the median seed-adjusted z-score was inactive: 0.602.
With GCACGACCCAAAUCCGAAUTT against PCDHGB2 the figure was inactive: -0.429; with AGGUCUUUACUUUCCUGAATT against GPX6, inactive: 0.35; with GAGAGAUUGUGAUUGGAGATT against BHMT, inactive: 0.
With CCACCCGGACGAUAUCUUUTT against PPARA the figure was inactive: 0.113; with GACCGUACGAGGCAAGUAATT against PAX1, inactive: -0.111.
In the case of GGUCAGACCAGUAACAAAATT against E2F6, the median seed-adjusted z-score was inactive: -0.299.
Take CUACCUCAGUAAUCACAAUTT against EPHA1: the median seed-adjusted z-score is inactive: -0.092.
The same measure for GGCAAGACCUGCAACCAGATT against NTN3: inactive: 0.298; for GACUUUGAAGGAUCCUAUUTT against VPS13B: inactive: 0; for CUUCGGUAGUUAUGUGACATT against DYNLL1: inactive: 0.
For GGAGCAUCCAUCUGAGAAATT against TRPV5, the median seed-adjusted z-score is inactive: 0.0879.
For the sequence GGACUAGGCCCUACACACATT against PITX3, the median seed-adjusted z-score was inactive: 0.
As for GGAUGAUUAUGCUAAUCUATT against GGPS1, the median seed-adjusted z-score was inactive: -0.372.
Consider GGGAAGGUGUUACAGGCUATT against FAM62A, for which the median seed-adjusted z-score is inactive: -0.34.
With CCAUGAACUCGAUCACAGATT against TLE3 the figure was inactive: -0.451.
The same measure for GGCUAUGGGAAGUACAAGATT against PDE1B: inactive: -0.384; for CGUCAUCUUUGCGAAGAUUTT against EHD2: inactive: 0.0989.
For the sequence AUAUGUUCCAGGACCCUAATT against TUBB4Q, the median seed-adjusted z-score was inactive: -0.0288.
With CCAUGAACUUUGGUGUUCATT against ELOVL3, the median seed-adjusted z-score is inactive: 0.
CUUCAAGAAUAAGUACGAATT against KRT7: the median seed-adjusted z-score is inactive: 0.
As to GACAGUCACUGAGCAUAGATT against PKD1L2, the median seed-adjusted z-score is active: -1.17.
Turning to CCAGUUCCGAAUCAUCAGATT against PRICKLE3, the median seed-adjusted z-score was inactive: 0.0332.
Turning to CGUCAUCAGACUCAAUGAATT against 12-Sep, the median seed-adjusted z-score is inactive: 0.286.
Take GGAGCUUCGAGAUAUCUUATT against POU4F1: the median seed-adjusted z-score is inactive: -0.138.
With CACGAACUGUUAGCACCUATT against TBC1D5, the median seed-adjusted z-score was inactive: 0.38.
Regarding GCUUGUACCUCAUAUCAGATT against INCENP, the median seed-adjusted z-score is inactive: -0.339.
With GCAGGAACAGAAUGCCGUATT against MBD4, the median seed-adjusted z-score was inactive: -0.107.
Turning to ACAGGGCAGUGCUACUGUATT against LAMA5, the median seed-adjusted z-score is inactive: 0.229.
In the case of GUUCAGACCUUUAUAGACATT against ZNF449, the median seed-adjusted z-score was inactive: 0.178.
Regarding CCAACAAUAAGAACGAGAATT against POLR1A, the median seed-adjusted z-score was inactive: 0.0814.
GAAAGAUUCAUGAGAUAUUTT against PRDM5: the median seed-adjusted z-score was inactive: -0.463.
For the sequence GAUGUUGUUUUGUCGGCUATT against HEATR1, the median seed-adjusted z-score was inactive: -0.115.
The same measure for GGGAUAAUCAUGCACAGCATT against ADCYAP1: inactive: 0.229; for CACUAAUAUGUGAACUUAUTT against RAGE: inactive: -0.154.
The same measure for ACAACCUUCCUGUACUUCATT against GPR175: inactive: 0.245; for GGAGAAAGGUGAUCCCUGATT against MFSD5: inactive: 0.205; for CAGCAGAUCCUUUCACGAATT against FRMD4B: inactive: -0.567.
Turning to CAGAGAUCGUAUUGAUAUUTT against SNAP23, the median seed-adjusted z-score is inactive: 0.31.
The same measure for CGACUAAACAUAUCUGGAATT against GPR124: inactive: 0.00658; for GCAAAGGCACUAAGAAGUUTT against GJA8: inactive: 0; for GGUUGUUGGUUGGACUGUUTT against GDE1: inactive: -0.256.
For the sequence CCUCAACCGUGGACAAUAUTT against MLH1, the median seed-adjusted z-score was inactive: -0.215.
Consider CCUUGAAGAGAGAACGGAATT against MYH14, for which the median seed-adjusted z-score was inactive: -0.307.
